ChEMBL document CHEMBL1250431, “Morphinans and isoquinolines: acetylcholinesterase inhibition, pharmacophore modeling, and interaction with opioid receptors” (Bioorg Med Chem, 2010)

The chains behind the UniProt entries cited, without tags or fusion partners. Where a name states a change or a piece, a line headed by the entry shows the natural chain unless it says otherwise.
UniProt O42275: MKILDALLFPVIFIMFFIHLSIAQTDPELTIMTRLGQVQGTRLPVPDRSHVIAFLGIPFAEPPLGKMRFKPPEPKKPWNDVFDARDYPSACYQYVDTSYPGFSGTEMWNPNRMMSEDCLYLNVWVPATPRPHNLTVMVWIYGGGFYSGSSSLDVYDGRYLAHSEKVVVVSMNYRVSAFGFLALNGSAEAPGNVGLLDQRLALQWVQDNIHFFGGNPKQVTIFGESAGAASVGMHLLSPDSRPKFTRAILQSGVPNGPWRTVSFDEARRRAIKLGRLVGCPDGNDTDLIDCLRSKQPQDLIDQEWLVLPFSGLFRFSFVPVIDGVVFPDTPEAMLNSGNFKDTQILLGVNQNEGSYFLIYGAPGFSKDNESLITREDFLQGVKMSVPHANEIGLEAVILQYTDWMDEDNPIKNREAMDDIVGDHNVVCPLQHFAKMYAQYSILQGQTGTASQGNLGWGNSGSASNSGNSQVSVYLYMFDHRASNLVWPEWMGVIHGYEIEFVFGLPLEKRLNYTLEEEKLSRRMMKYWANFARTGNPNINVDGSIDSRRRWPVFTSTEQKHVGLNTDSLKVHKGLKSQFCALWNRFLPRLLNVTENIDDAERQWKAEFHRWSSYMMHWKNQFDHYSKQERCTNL

Target: Acetylcholinesterase (Electrophorus electricus, UniProt O42275)
Test: Inhibition of electric eel AChE by Ellman's method

CN1CC[C@]23c4c5ccc(O)c4O[C@H]2[C@@H](O)C=C[C@H]3[C@H]1C5 [MORPHINE]
Ki: 109 µM
